Results are given in words; binding and its absence hold for the method and conditions named. Some binding calls cover weakened binding; strength is not graded here. For part of these data: Where a sequence is shown, tags or fusion partners need not be part of it. Each block holds one binder with its values, some of them ahead of it.
How the values were obtained:
[1] = target: CTLA4-Fc variant E31A R33A (human); experiment: analytical SEC (relative A230) of an equimolar mixture of mLCN2-Fc and CTLA4Fc E31A R33A
[2] = target: CTLA4-Fc variant T51H (human); experiment: analytical SEC (relative A230) of an equimolar mixture of mLCN2-Fc and CTLA4Fc T51H
[3] = target: CTLA4-Fc variant T51H (human); experiment: analytical SEC, 1:1 mix
[4] = target: CTLA4-Fc variant E31A R33A (human); experiment: analytical SEC, 1:1 mix
[5] = target: CTLA4-Fc variant E31S (human); experiment: analytical SEC, 1:1 mix
[6] = target: CTLA4-Fc variant Y52F (human); experiment: analytical SEC, 1:1 mix
[7] = target: CTLA4-Fc variant Y52F (human); experiment: analytical SEC (relative A230) of an equimolar mixture of mLCN2-Fc and CTLA4Fc Y52F
[8] = target: CTLA4-Fc variant E31S (human); experiment: analytical SEC (relative A230) of an equimolar mixture of mLCN2-Fc and CTLA4Fc E31S
[9] = target: CTLA4-Fc variant Y52F (human); experiment: SPR (Table 3)

binding [1]: binds
binding [2]: binds
binding [3]: binds
binding [4]: binds
binding [5]: binds
binding [6]: binds
binding [7]: binds
binding [8]: binds
B1: mLCN2-Fc (bivalent m-Lcn2 fused to human IgG1 Fc) (Fc fusion, not shown: a dimerising Fc or GST)
chain: QDSTSDLIPAPPLSKVPLQQNFQDNQFHGKWYVVGLAGNRILRDDQHPMNMYATIYELKEDKSYNVTSVISSHKKCEYTIATFVPGSQPGEFTLGNIKSYGDKTSYLVRVVSTDYNQYAVVFFKLAEDNAEFFAITIYGRTKELASELKENFIRFSKSLGLPENHIVFPVPIDQCIDG

binding [9]: binds
B2: modified lipocalin2 (mLcn2), monovalent (designed binder)
chain: B1 chain

Source: patent US20200325212A1
